# In PubChem BioAssay AID504648 (National Center for Advancing Translational Sciences (NCATS), 2011):
# Out of some 390,000 compounds screened, about 610 (0.16%) were called active. This list was built around the results that the source calls inconclusive (neither active nor inactive); the mix of calls is not that of the screen. The call rests on the fitted dose curve; in most records, active means well fitted inhibition curve with a large enough effect; inconclusive means small, poorly fitted or top-dose-only effect, or effect the other way, or another doubt; inactive means no such curve, though single readings can be large or run the other way. A potency beside an inconclusive call is a rough fit, not a confirmed value.
# Test: Nrf2 qHTS screen for inhibitors: counterscreen for cytotoxicity
# Details: A549 ARE-Fluc cells, CellTiter-Fluor viability, 18-24 h; activity change, negative = cytotoxicity: at 46 µM (top of the series)
# Summary of the method: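 A549 ARE_Fluc cells in 5% FBS OPTI-MEM were exposed to compounds in concentration-response for 18-24 h at 37 deg C. Viability was read by CellTiter-Fluor fluorescence (Ex 405/Em 525) after 30 min, before the luciferase read.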
# On the % scale 0 is the no-effect control and ±100 the full control effect; potency means the concentration at half of the fitted maximal effect.
Compound,Potency,"activity change, negative = cytotoxicity"
COC(=O)/C(C#N)=C1/C=Cc2ccccc2N1C,"inconclusive: 29.1 µM [falling, single point]",–
CC1(OC(=O)C2CCCC2)C(=O)C=C2C=C3CCCCN3C=C2C1=O (stereo unspecified),"inconclusive: 23.1 µM [falling, partial curve, poor fit]",–
Cc1cc(NC(=O)c2cccc(C(=O)Nc3cc(C)on3)n2)no1,"inconclusive: 6.51 µM [falling, single point]",–
Cc1ccccc1-c1noc(-c2ccc(Cl)cc2)n1,–,inactive: 1.12%
Cc1nc(N)sc1N=Nc1ccc(Br)cc1,"inconclusive: 16.4 µM [falling, single point]",–
CCC(COC(=O)Nc1cccc(C)c1)NC(=O)OCC(C)C (stereo unspecified),–,inactive: -6.69%
CCN1/C(=C\C=C2\C(=O)N(C)C(=S)N2C)Sc2ccccc21,"inconclusive: 3.66 µM [falling, full curve]",–
O=C(CN1c2ccccc2Sc2ccccc21)NNC(=S)Nc1ccc(Cl)cc1Cl,"inconclusive: 29.1 µM [falling, partial curve, poor fit]",–
CCOC(=O)c1ccc(NS(=O)(=O)c2ccc(-c3cc(C)no3)cc2)cc1,–,inactive: -0.635%
N#Cc1c(N)n(-c2cccc(C(=O)O)c2)c2nc3ccccc3nc12,"inconclusive: 14.6 µM [activator, partial curve, poor fit]",–
CCOC(=O)c1c(NC(=S)Nc2ccc(Cl)cc2)sc(C)c1C,"inconclusive: 2.31 µM [activator, partial curve, poor fit]",–
Cc1ccc2[nH]c3c(=O)[nH]ncc3c2c1,"inconclusive: 29.1 µM [falling, partial curve, poor fit]",–
CCOc1ccc(-n2c(SCC(=O)NCc3ccco3)nc3ccccc3c2=O)cc1,–,inactive: 0.183%
CCOc1ccc(NC(=O)Cn2c(=O)n(-c3ccccc3)c(=O)c3ccc(C(=O)NCc4ccc5c(c4)OCO5)cc32)cc1,–,inactive: -27.4%
Cc1ccccc1-n1nc(C(=O)c2cccs2)cc(-c2nc3ccccc3[nH]2)c1=N,"inconclusive: 20.6 µM [falling, partial curve, poor fit]",–
Cc1ccc2oc(-c3cccc(NC(=O)Cc4cccs4)c3)nc2c1,"inconclusive: 25.9 µM [falling, single point]",–
COc1ccc(S(=O)(=O)Nc2cc3c4c(oc3c3ccccc23)CC(C)(C)CC4=O)cc1,"inconclusive: 23.1 µM [falling, single point]",–
O=S(=O)(NCCNc1ncc(C(F)(F)F)cc1Cl)C(F)(F)F,"inconclusive: 29.1 µM [falling, single point]",–
Cc1ccc(-c2nnc3ccc(SCC(=O)N4CCc5ccccc54)nn23)cc1,"inconclusive: 6.51 µM [falling, single point]",–
COc1ccc(-c2sc3ccc(OC)cc3c2-c2ccc(OC)c(F)c2)cc1,"inconclusive: 9.2 µM [activator, partial curve, poor fit]",–
Cc1ccccc1Cn1c(=N)n(CC(O)c2ccco2)c2ccccc21 (stereo unspecified),"inconclusive: 32.6 µM [falling, partial curve, poor fit]",–
O=C(NNC(=O)c1cccs1)c1ccc(Cl)c(Cl)c1,"inconclusive: 29.1 µM [activator, partial curve, poor fit]",–

Compound,Potency,"activity change, negative = cytotoxicity"
O=C1CN(C(=O)COC(=O)/C=C/c2ccc(OC(F)F)cc2)c2ccccc2N1,–,inactive: 1.32%
CCCN(CCC)CC(O)Cn1cc(/C=C/C(=O)c2ccc(C)cc2)c2ccccc21 (stereo unspecified),"inconclusive: 29.1 µM [falling, partial curve, poor fit]",–
COc1ccc2nc(C)cc(SCC(=O)N/N=C/c3cccc4ccccc34)c2c1,active: 23.1 µM,–
O=C1CCc2cc([S+](=O)([O-])NC3CCOCC3)ccc2N1,–,inactive: 0.0371%
CC(C)c1ccc(C(=O)NCCCN2CCN(CCCNC(=O)c3ccc(C(C)C)cc3)CC2)cc1,"inconclusive: 16.4 µM [falling, partial curve, poor fit]",–
Cc1nc2cc(-c3ccccc3)nn2c(C)c1CCC(=O)NCc1ccco1,–,inactive: -1.67%
Cc1ccc(CSCC(=O)Nc2cc(S(=O)(=O)N3CCOCC3)ccc2OCC(F)(F)F)cc1,–,inactive: -16.2%
O=[N+]([O-])c1cccc(-c2csc(N/N=C/c3cccc(O)c3)n2)c1,"inconclusive: 29.1 µM [falling, single point]",–
CCOc1ccc(NC(=O)Nc2cccn(Cc3ccccc3)c2=O)cc1,"inconclusive: 16.4 µM [falling, single point]",–
N#CC1=C(c2ccccc2)/C(=C/c2ccccc2)OC1=O,"inconclusive: 23.1 µM [falling, single point]",–
O=S(=O)(c1ccc(Cl)cc1)c1snnc1-c1ccccc1,"inconclusive: 36.6 µM [falling, single point]",–
Cc1cc(C(=O)N2CCCC(N3CCN(c4cccc(C(F)(F)F)c4)CC3)C2)c(C)o1 (stereo unspecified),"inconclusive: 32.6 µM [falling, partial curve, poor fit]",–
COC(=O)c1c(C)oc2ccc(N(C(C)=O)S(=O)(=O)c3ccccc3)cc12,"inconclusive: 16.4 µM [falling, partial curve, poor fit]",–
C=CCn1c(SCC(=O)NC(=O)NCCC)nnc1C1CCCCC1,–,inactive: 6.97%
O=[N+]([O-])c1ccc(-[n+]2nc(-c3ccccc3)nn2-c2ccccc2)cc1,"inconclusive: 20.6 µM [falling, partial curve, poor fit]",–
Brc1ccc(-c2nc3ccccn3c2Nc2ccc3c(c2)OCCO3)o1,–,inactive: -3.17%
O=C(CNc1cc(S(=O)(=O)N2CCCC2)ccc1OCC(F)(F)F)Nc1ccc(SC(F)F)cc1,"inconclusive: 18.4 µM [falling, single point]",–
c1ccc(NN=C2c3ccccc3-c3ccccc32)cc1,"inconclusive: 6.51 µM [falling, full curve]",–
CCn1c2ccccc2c2c3ncc4cccn4c3ccc21,–,inactive: 13.4%
Cc1ccc(NC(=O)CCS(=O)(=O)c2cc3c(cc2Cl)NC(=O)CO3)cc1,–,inactive: -2.55%
O=C(N/N=C/c1cccn1-c1ccc([N+](=O)[O-])cc1)C(O)c1ccccc1 (stereo unspecified),"inconclusive: 5.17 µM [falling, partial curve, poor fit]",–
CCC(C)(C)c1ccc(OCC(=O)N(C)C)c(C(C)(C)CC)c1,"inconclusive: 29.1 µM [falling, single point]",–

Compound,Potency,"activity change, negative = cytotoxicity"
Cc1ccc2nc(Cl)c3nnnn3c2c1,"inconclusive: 20.6 µM [falling, partial curve, poor fit]",–
COc1cc(CNC(=O)c2ccc3nc(CCc4ccccc4)oc3c2)cc(OC)c1OC,–,inactive: -7.71%
COc1ccccc1OCC(O)Cn1c(=N)n(CCN2CCCCC2)c2ccccc21 (stereo unspecified),"inconclusive: 23.1 µM [falling, single point]",–
Oc1ccccc1/C=N/Nc1cc(N2CCCC2)nc(N2CCCC2)n1,"inconclusive: 29.1 µM [falling, single point]",–
CCN(CCCNC(=O)C1CCN(S(=O)(=O)c2cccc3nonc23)CC1)Cc1ccccc1,"inconclusive: 16.4 µM [activator, partial curve, poor fit]",–
Cc1c(C(=O)N2CCNCC2)oc2ccccc12,"inconclusive: 20.6 µM [activator, partial curve, poor fit]",–
Cc1ccc(S(=O)(=O)N(Cc2nc(-c3cccc(C)c3)no2)C2CCCCC2)cc1,–,inactive: 9.2%
Cc1cc(/C=N/Nc2ccc([N+](=O)[O-])cn2)c(C)n1-c1cccc(C(=O)O)c1,"inconclusive: 14.6 µM [falling, partial curve]",–
Cc1ccc(N(C)C(=O)N2CCN(S(=O)(=O)c3ccc(C)cc3)CC2)cc1,–,inactive: -2.34%
CCCc1cc(C(=O)N2CCCC(C(=O)c3cccc4ccccc34)C2)n(C)n1 (stereo unspecified),–,inactive: -13.1%
Cc1ccc(C2=NN(C(=O)c3ccccc3F)C(c3ccccc3F)C2)cc1 (stereo unspecified),"inconclusive: 32.6 µM [falling, single point]",–
CCN(CC(=O)Nc1cc(S(=O)(=O)N2CCOCC2)ccc1Cl)Cc1ccccc1,"inconclusive: 32.6 µM [falling, partial curve, poor fit]",–
Cc1ccc(C)c(S(=O)(=O)c2nnn3c2nc(NC(C)C)c2sccc23)c1,"inconclusive: 18.4 µM [falling, single point]",–
Cc1ccccc1C(=O)NC1(C(F)(F)F)N=C(c2ccccc2)N(C2CCCCC2)C1=O (stereo unspecified),–,inactive: 1.23%
C[C@]12c3[nH]c4ccc(Cl)cc4c3CCN1C(=O)[C@@H](CC(=O)NCC13CC4CC(CC(C4)C1)C3)C[C@@H]2C(=O)N1CCOCC1,–,inactive: -22.1%
CCOc1ccccc1CNC(=O)c1c(C)oc2ncnc(N3CCOCC3)c12,–,inactive: -0.997%
Cc1onc(-c2ccccc2Cl)c1C(=O)O/N=C(\N)c1ccc([N+](=O)[O-])o1,"inconclusive: 13 µM [falling, partial curve, poor fit]",–
CC1Cc2cc(/C=C3/SC(=S)NC3=O)ccc2O1 (stereo unspecified),active: 13 µM,–
COC(=O)c1[nH]c2ccc(Br)cc2c1NC(=O)CN1CCN(C2CCCCC2)CC1,"inconclusive: 23.1 µM [falling, single point]",–
CCOc1ccc2nc(NCCNC(=O)Nc3ccccc3)c(C#N)cc2c1,"inconclusive: 18.4 µM [activator, partial curve, poor fit]",–
CCN(CC)c1ccc2c(c1)oc(=O)c1c(Cl)cc(=O)oc12,"inconclusive: 16.4 µM [falling, partial curve, poor fit]",–
COC(=O)c1ccccc1N=Nc1c(N)[nH][nH]c1=O,"inconclusive: 18.4 µM [falling, partial curve, poor fit]",–

# In the list so far, 4 have a cyano group.
Compound,Potency,"activity change, negative = cytotoxicity"
COC(=O)/C(C#N)=C1/C=Cc2ccccc2N1C,"inconclusive: 29.1 µM [falling, single point]",–
N#Cc1c(N)n(-c2cccc(C(=O)O)c2)c2nc3ccccc3nc12,"inconclusive: 14.6 µM [activator, partial curve, poor fit]",–
N#CC1=C(c2ccccc2)/C(=C/c2ccccc2)OC1=O,"inconclusive: 23.1 µM [falling, single point]",–
CCOc1ccc2nc(NCCNC(=O)Nc3ccccc3)c(C#N)cc2c1,"inconclusive: 18.4 µM [activator, partial curve, poor fit]",–
